# Results of single-concentration screens

Chains of the proteins cited; added tags and fusions are not shown.
UniProt I6X8D2, whole entry: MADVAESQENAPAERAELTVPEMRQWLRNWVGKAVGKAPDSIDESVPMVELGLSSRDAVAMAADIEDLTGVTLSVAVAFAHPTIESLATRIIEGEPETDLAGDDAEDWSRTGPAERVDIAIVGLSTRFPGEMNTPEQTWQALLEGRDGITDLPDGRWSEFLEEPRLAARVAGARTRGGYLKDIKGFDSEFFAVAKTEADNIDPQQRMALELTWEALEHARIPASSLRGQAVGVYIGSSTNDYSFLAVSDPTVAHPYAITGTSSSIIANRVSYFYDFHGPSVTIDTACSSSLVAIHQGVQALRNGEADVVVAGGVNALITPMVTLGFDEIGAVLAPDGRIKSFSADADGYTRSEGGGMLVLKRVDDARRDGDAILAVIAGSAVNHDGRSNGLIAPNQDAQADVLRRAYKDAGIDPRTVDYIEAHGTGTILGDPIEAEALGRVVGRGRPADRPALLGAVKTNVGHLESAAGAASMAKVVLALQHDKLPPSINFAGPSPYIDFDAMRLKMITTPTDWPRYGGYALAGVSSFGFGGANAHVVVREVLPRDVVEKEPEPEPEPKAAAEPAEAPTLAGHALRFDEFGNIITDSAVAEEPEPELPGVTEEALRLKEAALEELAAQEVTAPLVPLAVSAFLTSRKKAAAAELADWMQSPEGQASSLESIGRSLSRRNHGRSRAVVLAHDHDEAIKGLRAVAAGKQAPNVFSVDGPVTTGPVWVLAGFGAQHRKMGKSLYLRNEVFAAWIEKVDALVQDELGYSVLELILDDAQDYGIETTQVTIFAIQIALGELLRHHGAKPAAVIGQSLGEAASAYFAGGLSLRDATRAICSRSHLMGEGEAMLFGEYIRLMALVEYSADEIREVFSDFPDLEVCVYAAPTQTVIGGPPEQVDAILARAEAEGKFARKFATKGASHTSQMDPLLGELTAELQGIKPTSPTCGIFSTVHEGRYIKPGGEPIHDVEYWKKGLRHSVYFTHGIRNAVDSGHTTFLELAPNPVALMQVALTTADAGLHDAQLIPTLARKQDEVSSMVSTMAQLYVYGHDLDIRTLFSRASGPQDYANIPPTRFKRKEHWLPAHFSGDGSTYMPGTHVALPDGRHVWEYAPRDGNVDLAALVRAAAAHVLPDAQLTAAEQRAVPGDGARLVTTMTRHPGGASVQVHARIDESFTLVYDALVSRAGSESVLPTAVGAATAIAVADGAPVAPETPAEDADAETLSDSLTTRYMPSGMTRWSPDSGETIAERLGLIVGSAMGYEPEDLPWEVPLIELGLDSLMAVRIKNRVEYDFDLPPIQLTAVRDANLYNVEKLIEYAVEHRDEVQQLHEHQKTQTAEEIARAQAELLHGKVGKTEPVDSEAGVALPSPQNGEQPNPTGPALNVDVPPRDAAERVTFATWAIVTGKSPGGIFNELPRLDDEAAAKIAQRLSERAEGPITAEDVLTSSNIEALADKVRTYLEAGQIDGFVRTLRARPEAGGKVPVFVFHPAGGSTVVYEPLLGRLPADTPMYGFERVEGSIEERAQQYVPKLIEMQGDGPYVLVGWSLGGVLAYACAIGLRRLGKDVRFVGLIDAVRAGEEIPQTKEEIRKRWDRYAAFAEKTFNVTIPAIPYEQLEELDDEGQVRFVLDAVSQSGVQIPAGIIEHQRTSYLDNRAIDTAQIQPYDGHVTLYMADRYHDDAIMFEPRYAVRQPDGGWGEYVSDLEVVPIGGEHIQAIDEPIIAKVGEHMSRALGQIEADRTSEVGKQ
UniProt P9WNZ1, whole entry: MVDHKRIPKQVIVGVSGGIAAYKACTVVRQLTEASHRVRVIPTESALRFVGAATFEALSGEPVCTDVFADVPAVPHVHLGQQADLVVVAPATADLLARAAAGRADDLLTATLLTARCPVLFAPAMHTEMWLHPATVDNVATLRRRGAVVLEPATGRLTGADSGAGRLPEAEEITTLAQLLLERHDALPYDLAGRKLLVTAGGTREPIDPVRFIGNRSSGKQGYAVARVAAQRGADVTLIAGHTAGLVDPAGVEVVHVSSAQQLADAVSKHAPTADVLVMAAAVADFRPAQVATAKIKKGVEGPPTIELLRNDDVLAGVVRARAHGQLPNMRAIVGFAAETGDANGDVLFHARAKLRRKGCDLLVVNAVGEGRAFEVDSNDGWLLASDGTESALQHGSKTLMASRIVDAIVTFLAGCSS
UniProt P9WFT3, whole entry: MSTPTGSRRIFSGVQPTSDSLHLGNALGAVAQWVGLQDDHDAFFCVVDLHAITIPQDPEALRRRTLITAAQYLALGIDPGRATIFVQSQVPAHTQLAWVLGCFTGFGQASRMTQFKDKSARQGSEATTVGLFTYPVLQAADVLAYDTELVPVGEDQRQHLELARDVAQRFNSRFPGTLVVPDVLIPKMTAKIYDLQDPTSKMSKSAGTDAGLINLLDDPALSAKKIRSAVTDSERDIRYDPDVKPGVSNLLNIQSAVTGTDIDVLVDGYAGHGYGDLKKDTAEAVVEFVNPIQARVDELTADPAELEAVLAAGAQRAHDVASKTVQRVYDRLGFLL

Each number is a percent effect as filed. How 0% and 100% were set is not recorded. Most values in the screen are low, and negative values occur. Compounds were drawn at random from those tested, without regard to their results. Two or more numbers in one place are separate tests of the same structure; such repeats can differ widely. A dash means the value is not listed here; it may have been measured.

Pks13 thioesterase: 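Polyketide synthase Pks13, Mycobacterium tuberculosis (UniProt I6X8D2). Enzyme assay of the thioesterase domain of polyketide synthase 13; the read-out is not stated. Compounds at 30 µM. The record gives no direction; the compounds picked for IC50 retests had high values, so higher reads as stronger inhibition. About 67,000 compounds were tested under these conditions; 0.46% (about 300) showed 50% or more at least once.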
CoaBC: 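Enzyme assay of CoaBC with a phosphate dye (Biomol Green) read at 650 nm. Target: Coenzyme A biosynthesis protein CoaBC, Mycobacterium tuberculosis (UniProt P9WNZ1). Compounds at 30 µM. Higher reads as stronger inhibition, judged from the few compounds that gave an IC50. Most strong results did not repeat in a second test. Size under these conditions: about 67,000 compounds, about 40 of them at 50% or above in at least one test.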
Leishmania in macrophages: 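Cell assay of Leishmania donovani living inside macrophages; the read-out is not stated. Tested at 30 µM. Direction is inferred from retests: higher values go with stronger inhibition. Size under these conditions: about 69,000 compounds, about 1,000 of them at 50% or above in at least one test.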
MtTrpRS: 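Enzyme assay of tryptophanyl-tRNA synthetase; the read-out is not stated. Target: Tryptophan-tRNA ligase, Mycobacterium tuberculosis (UniProt P9WFT3). Tested at 10 µM. Direction is not recorded; retested compounds ran higher, which suggests that high means inhibition. About 65,000 compounds were tested under these conditions; 0.098% (about 64) showed 50% or more at least once.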

SMILES,Pks13 thioesterase,CoaBC,Leishmania in macrophages,MtTrpRS
CN1CCCc2cc(CNC(=O)c3cc[n+]([O-])cc3)ccc21,-14.94%,5.59%,-8.715%,-1.846%
COC(=O)Cc1cccc(NC(=O)Cc2ccon2)c1,-25.19%,-0.9756%,19.53%,1.188%
COc1cc2cc3c(nc2cc1OC)OCCN(Cc1cccs1)C3,-6.757%,3.497%,-39.1%,16.78%
COc1ccc([C@@H]2CN(C(=O)CCCc3cn[nH]c3)C[C@H]2N(C)C)cc1,5.684%,2.088%,11.1%,-2.381%
Cc1[nH]c2c(C)ccc(C)c2c1CC(=O)NCc1csc(N(C)C)n1,-0.8845%,-0.6031%,-30.85%,2.101%
O=C(O)C(F)(F)F.O=C(O)C(F)(F)F.O=C1NC2(CCN(Cc3ccc(F)cc3)CC2)CC1c1ccncc1 (stereo unspecified),-,-,4.758%,-
NC(=O)C1(CCCc2ccccn2)CCCN(c2ncccn2)C1 (stereo unspecified),40.21%,1.937%,18.52% and 10.78%,-
O=C(O)C(F)(F)F.O=C(O)C(F)(F)F.c1c(CN2CCCC2)nc2n1CCN(C1CCOCC1)C2,-,-,25.13%,-
COc1cccc(F)c1CN1CCC(c2nc(C)cc(C)n2)C1 (stereo unspecified),-10.36%,-7.99%,-1.095%,70.17%
CS(=O)(=O)N1CCCC12CCCN(S(=O)(=O)c1cccc(F)c1)C2 (stereo unspecified),-20.15%,-10.12%,12.59%,-4.265%
CS(=O)(=O)NC1CCCN(C(=O)NCc2cccnc2)C1 (stereo unspecified),-28.95%,5.641%,-20.47%,0.5473%
CCc1csc(C2CCCN(C(=O)c3ccc(OC)nn3)C2)n1 (stereo unspecified),-10.45%,2.41%,3.604%,0.7194%
CN(c1ccc(CNC(=O)c2ccc(O)nc2)cc1)C1CCCCC1,-23.94%,1.681%,57.37%,3.087%
CCc1cc(N2CCC(F)(F)CC2)n2nc(C)c(C)c2n1,14.21%,-5.353%,-4.725%,-5.008%
Cn1cc(Cl)cc1C(=O)N1CCCN(Cc2ccccc2)CC1,-21.93%,8.951%,1.338%,-1.976%
Cc1cnc(N2CC[C@@H](N3CCOCC3)[C@@H]2Cc2ccncc2)nc1.O=C(O)C(F)(F)F.O=C(O)C(F)(F)F,-,-,-2.088%,-
COc1ccc(C2=CCN(C(=O)C3CCS(=O)(=O)C3)CC2)cc1 (stereo unspecified),-11.7%,4.215%,-20.54%,33.53%
Cc1ccc(-c2cc(C)nc(C3CCCN3S(C)(=O)=O)n2)cc1 (stereo unspecified),-5.758%,8.551%,-1.861%,-4.959%
Cc1cnn(CC(=O)N2CCCN(Cc3cnn(C(C)C)c3)CC2)c1,-5.355%,19.08%,25.11%,-7.045%
O=C(O)[C@@H]1CN(Cc2c[nH]c(CC3CCCC3)n2)C[C@H]1c1ccccn1,-9.394%,-,-17.08%,15.84%
CN(Cc1ccco1)C1CCC12CCN(C(=O)C1CCOCC1)CC2 (stereo unspecified),-35.92%,3.053%,-,-3.8%
COCCCNC(=O)c1c(C)noc1C(C)C,-24.8%,2.389%,26.05%,-8.992%
COc1ccc(-c2cc(CN)ccc2F)c(OC)c1OC,15.05%,0.8547%,-7.273%,2.213%
CN(C1CCCCC1)S(=O)(=O)N1CCN(Cc2ccon2)CC1,-21.48%,1.595%,2.995%,-6.699%
Cc1nc2c(c(NCCNC(=O)C(C)C)n1)Cc1ccccc1OC2,3.11%,2.133%,-52.78%,10.56%
Cc1nc(C2CCCN2CC(=O)N(C)Cc2ccsc2)no1 (stereo unspecified),-0.01591%,4.337%,-20.06%,17.41%
NC(=O)CN1CCCC(CCCc2ccccn2)(C(N)=O)C1 (stereo unspecified),4.019%,0.2451%,-11.78%,-
CCn1c(CN2CCCC2)nnc1C1CCN(Cc2cc(C)no2)CC1,-42.87%,1.468%,8.942%,1.365%
Cc1oc(-c2ccoc2)nc1CN1CCCCC1CCc1ccccc1 (stereo unspecified),-13.43%,1.327%,3.416%,-1.232%
O=C(O)C(F)(F)F.[H][C@@]12COC[C@]1(CNC(=O)c1ccco1)CN(Cc1sccc1C)C2,-,-,31.86%,-
Cc1cnc(C(=O)N2CCc3ncnc(C)c3CC2)cn1,-13.42%,-0.6452%,8.595%,-0.4112%
c1cncc(OC[C@@]23CCC[C@@H]2CN(C2CCOCC2)C3)c1,7.489%,0.6061%,-,-
Cc1cnc(C(NC(=O)NCC2(CO)CC2)C2CC2)s1 (stereo unspecified),-10.89%,9.133%,0.06505%,-3.087%
CCOC(=O)C1CCCCN1Cc1c[nH]nc1-c1ccc(F)cc1F (stereo unspecified),-7.211%,-8.696%,-15.45%,2.677%
CN(Cc1cccnc1)CC1CC12CCN(c1nncs1)CC2 (stereo unspecified),-27.37%,-6.554%,-,0.3524%

Some entries from above, unchanged:

* CCn1c(CN2CCCC2)nnc1C1CCN(Cc2cc(C)no2)CC1 : Pks13 thioesterase: -42.87%; CoaBC: 1.468%; Leishmania in macrophages: 8.942%; MtTrpRS: 1.365%
* Cc1cnc(C(NC(=O)NCC2(CO)CC2)C2CC2)s1 (stereo unspecified) : Pks13 thioesterase: -10.89%; CoaBC: 9.133%; Leishmania in macrophages: 0.06505%; MtTrpRS: -3.087%
* c1cncc(OC[C@@]23CCC[C@@H]2CN(C2CCOCC2)C3)c1 : Pks13 thioesterase: 7.489%; CoaBC: 0.6061%

The values are deposited in ChEMBL (CHEMBL3988442, “University of Dundee, Small-Polar-MMV Screening Library” (2021)).